No constants are given. Whether binding was seen depends on the method and setting. In cells and extracts the contact can be indirect. Some results given as binding are weak or reduced against the parent protein; the word gives no strength.
Target: wild-type GFP-RAB7A (human) (UniProt P51149)
Assay: co-IP; GFP-Trap A beads on lysates of HeLa cells transiently transfected with GFP-RAB7A forms; western blot with anti-VPS13A, anti-GFP and anti-RILP; 10 mM Tris-HCl pH 7.5, 150 mM NaCl, 4 h at 4°C

By UniProt entry, the sequences of proteins in these tests, tags left out.
UniProt P51149: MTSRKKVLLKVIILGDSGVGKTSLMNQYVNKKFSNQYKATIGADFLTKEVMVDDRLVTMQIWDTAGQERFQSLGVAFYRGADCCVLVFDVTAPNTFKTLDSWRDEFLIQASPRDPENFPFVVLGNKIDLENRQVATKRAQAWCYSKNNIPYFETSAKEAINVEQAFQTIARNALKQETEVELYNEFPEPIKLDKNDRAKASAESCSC
UniProt Q96RL7: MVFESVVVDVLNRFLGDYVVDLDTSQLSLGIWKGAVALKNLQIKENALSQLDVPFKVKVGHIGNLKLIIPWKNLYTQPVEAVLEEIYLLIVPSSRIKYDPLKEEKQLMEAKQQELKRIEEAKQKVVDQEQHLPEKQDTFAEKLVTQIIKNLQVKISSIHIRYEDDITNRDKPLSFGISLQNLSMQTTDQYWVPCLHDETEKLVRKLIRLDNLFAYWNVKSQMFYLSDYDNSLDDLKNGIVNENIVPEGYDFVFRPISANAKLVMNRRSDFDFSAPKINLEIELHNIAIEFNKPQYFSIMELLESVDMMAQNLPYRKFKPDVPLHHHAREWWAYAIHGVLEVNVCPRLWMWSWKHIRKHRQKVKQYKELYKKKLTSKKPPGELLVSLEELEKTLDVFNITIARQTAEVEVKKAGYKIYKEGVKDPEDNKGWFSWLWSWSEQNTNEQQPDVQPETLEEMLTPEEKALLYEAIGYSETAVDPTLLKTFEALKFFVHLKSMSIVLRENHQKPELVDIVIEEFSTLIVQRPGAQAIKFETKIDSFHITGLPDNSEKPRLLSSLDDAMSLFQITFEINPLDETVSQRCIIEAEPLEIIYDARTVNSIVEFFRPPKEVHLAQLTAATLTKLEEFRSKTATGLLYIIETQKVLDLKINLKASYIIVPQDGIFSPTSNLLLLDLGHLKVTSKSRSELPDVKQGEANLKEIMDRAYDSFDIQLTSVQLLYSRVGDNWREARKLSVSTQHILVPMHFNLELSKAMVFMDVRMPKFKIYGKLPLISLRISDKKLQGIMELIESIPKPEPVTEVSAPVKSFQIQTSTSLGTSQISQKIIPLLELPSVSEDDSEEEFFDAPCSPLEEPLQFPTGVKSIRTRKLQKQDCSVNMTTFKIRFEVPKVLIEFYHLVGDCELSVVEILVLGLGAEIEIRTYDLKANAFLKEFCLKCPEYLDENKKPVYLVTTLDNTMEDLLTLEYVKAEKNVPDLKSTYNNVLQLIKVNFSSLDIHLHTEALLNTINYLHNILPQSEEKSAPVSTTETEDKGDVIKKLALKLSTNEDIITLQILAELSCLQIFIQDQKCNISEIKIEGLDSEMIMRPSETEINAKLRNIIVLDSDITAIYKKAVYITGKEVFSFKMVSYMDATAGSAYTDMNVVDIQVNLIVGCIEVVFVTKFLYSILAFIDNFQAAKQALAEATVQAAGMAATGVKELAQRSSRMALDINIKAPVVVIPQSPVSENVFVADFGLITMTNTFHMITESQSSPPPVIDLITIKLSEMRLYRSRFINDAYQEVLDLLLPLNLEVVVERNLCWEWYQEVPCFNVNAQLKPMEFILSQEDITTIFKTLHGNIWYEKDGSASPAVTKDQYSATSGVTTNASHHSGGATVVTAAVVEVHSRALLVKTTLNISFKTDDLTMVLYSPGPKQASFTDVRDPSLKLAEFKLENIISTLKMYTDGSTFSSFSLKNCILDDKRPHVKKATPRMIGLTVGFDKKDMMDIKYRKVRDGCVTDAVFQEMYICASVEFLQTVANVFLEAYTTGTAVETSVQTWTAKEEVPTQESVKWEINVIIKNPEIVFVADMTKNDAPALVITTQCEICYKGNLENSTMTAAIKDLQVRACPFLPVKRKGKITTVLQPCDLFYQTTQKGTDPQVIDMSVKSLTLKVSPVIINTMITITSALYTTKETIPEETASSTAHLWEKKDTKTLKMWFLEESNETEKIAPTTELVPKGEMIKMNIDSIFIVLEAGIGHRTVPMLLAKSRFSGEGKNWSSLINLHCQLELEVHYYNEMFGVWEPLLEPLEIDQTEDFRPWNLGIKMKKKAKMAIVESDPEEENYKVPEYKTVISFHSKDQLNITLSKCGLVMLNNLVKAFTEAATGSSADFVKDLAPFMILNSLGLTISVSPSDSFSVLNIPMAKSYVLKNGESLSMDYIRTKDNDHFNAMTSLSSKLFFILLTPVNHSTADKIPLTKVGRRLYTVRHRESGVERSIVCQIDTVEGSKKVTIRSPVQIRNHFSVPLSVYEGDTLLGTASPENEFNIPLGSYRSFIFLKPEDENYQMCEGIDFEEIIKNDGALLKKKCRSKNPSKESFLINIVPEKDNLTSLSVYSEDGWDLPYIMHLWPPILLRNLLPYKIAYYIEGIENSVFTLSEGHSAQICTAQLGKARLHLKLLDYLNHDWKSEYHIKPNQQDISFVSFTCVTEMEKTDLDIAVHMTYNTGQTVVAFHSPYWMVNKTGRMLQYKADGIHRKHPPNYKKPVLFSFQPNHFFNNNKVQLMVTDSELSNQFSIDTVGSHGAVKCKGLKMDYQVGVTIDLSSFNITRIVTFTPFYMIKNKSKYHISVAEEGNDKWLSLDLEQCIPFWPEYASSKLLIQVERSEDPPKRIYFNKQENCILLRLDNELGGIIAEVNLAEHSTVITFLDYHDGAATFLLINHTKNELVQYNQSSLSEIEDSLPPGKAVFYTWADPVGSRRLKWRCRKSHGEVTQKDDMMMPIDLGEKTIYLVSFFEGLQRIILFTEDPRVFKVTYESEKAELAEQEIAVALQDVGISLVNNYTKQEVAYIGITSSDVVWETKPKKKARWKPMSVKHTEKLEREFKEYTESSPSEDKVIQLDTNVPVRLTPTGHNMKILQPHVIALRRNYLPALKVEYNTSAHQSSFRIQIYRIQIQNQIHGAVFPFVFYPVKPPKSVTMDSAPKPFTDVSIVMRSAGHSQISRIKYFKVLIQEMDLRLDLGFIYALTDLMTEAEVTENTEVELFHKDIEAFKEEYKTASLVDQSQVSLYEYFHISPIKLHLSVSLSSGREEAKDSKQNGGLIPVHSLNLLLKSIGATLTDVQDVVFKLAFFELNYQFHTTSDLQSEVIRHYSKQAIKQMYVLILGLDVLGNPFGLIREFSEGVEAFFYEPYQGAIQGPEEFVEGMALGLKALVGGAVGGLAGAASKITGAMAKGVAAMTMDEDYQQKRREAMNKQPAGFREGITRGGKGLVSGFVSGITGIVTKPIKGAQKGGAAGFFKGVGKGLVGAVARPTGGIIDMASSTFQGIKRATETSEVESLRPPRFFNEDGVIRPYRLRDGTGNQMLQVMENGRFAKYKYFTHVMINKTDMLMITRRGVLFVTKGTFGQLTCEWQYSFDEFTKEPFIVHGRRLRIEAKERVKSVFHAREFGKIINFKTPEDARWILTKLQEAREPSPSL

binding: binds
Substance: VPS13A (from UniProt Q96RL7 1-3174)
